Assay results from publication PMC4673135.
These are yes or no findings as the source states them, for the method shown. In cells and extracts the contact can be indirect. Some entries that bind do so weakly or less than the wild type.

Amino acid sequences for entries named in this document (tags omitted). A change or cut given only in a name is not applied to a line headed by its entry. Chains listed by the source or under a name are the forms on record and can include a tag or linker.
UniProt Q9Y297: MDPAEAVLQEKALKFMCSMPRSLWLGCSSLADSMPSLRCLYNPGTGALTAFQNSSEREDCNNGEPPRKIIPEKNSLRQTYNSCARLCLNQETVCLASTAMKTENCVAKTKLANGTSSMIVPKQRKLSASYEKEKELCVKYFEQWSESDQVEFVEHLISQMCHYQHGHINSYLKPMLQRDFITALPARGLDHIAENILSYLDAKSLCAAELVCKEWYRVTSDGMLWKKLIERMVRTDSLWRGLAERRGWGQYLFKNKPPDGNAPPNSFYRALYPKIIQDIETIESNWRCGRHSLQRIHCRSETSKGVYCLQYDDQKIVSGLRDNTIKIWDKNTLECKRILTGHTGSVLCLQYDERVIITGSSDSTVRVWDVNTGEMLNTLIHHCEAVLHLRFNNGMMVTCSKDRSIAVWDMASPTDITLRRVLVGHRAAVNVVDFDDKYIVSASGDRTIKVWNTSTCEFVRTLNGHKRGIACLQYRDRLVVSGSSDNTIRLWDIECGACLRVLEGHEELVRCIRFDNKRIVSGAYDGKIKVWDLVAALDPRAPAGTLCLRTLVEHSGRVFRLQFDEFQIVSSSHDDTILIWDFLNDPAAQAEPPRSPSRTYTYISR
UniProt Q9GZV5: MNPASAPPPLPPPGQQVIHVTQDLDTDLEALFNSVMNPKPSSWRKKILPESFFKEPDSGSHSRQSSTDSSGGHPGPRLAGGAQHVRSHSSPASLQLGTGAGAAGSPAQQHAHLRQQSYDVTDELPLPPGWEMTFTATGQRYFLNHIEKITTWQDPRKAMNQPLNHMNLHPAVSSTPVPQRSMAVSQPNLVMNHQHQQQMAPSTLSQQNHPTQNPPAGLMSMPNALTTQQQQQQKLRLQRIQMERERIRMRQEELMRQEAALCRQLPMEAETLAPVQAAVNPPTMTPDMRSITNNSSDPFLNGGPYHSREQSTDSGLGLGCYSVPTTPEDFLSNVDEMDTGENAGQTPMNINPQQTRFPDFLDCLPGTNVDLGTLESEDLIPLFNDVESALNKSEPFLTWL
TAZ3D-HA (phosphorylation mimicking mutant, S90/S105/T285 to aspartic acid) (Q9GZV5, form named): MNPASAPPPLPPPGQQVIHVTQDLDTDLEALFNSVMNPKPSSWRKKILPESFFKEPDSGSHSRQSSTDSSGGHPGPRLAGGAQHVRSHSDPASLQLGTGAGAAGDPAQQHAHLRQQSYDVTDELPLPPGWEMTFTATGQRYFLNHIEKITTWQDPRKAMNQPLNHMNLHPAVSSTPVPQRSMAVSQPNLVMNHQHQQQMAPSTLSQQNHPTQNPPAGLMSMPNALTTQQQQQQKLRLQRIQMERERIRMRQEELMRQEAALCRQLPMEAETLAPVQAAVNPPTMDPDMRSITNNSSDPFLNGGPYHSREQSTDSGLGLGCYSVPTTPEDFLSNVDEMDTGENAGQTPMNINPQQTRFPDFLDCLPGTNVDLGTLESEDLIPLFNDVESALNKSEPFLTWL
TAZ6D-HA (phosphorylation mimicking mutant, all six Cdk1 sites to aspartic acid) (Q9GZV5, form named): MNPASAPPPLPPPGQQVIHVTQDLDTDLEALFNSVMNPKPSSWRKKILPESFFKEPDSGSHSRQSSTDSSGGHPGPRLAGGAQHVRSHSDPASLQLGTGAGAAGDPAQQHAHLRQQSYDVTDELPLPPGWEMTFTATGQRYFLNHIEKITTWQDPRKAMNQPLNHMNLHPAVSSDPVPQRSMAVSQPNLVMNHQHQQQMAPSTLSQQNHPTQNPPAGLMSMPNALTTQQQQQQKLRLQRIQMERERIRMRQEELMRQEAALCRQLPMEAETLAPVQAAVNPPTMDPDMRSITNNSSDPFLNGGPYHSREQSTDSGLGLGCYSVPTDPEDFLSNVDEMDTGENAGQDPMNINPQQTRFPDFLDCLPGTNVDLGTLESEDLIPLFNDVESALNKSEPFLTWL

Target: β-TRCP-Flag (UniProt Q9Y297)
Assay: co-IP; HA-tagged TAZ or its mutant transfected alone or together with β-TRCP-Flag into HeLa cells; MG132 for 8 hours before protein extraction; immunoprecipitation with Flag (M2) antibody, TAZ detected by HA antibody

Substance | binding
TAZ3D-HA (phosphorylation mimicking mutant, S90/S105/T285 to aspartic acid) (from UniProt Q9GZV5 1-400) | binds
TAZ6D-HA (phosphorylation mimicking mutant, all six Cdk1 sites to aspartic acid) (from UniProt Q9GZV5 1-400) | binds
TAZ-HA (wild-type TAZ, Transcriptional co-activator with PDZ binding motif) (from UniProt Q9GZV5 1-400) | binds
